In patent US11685741B2, “Fluorescent probes” (University of Massachusetts, priority 2017, dated 2023):
Several values for one entry are separate records, joined by “and”; a condition that tells them apart may be missing. Identical values can stand only once.

Columns and labels:
ws1 cells = assay: Ratiometric determination of labile Fe2+ concentration in ws1 cells; type: cell-based, human
Method: (§1) For concentration determination, human primary fibroblast ws1 cells were grown at 37° C. in a humid atmosphere of 5% CO2 atmosphere in eagle's minimum essential medium (EMEM, ATCC) supplemented with 10% fetal bovine serum (FBS, ATCC). Cultures were divided into 1:2 every 48 h to an approximate cell density of 1.21 million cells/ml and used for experiments after 24 h. In addition, the human colon adenocarcinoma cell line HT29 (ATCC) was routinely grown in Dulbecco's modified Eagle's medium (DMEM) supplemented with 10% fetal bovine serum (FBS, ATCC).
(§2) A Zeiss LSM 710 laser-scanning confocal microscope system was used for cell imaging experiments in collaboration with a person in the lab. 40× oil-immersion objective lens were used to perform all the experiments. For imaging with the NIRh-Fret sensor, excitation wavelength of the laser was 633 nm and emissions were collected over the range 650-850 nm. For images with MitoTracker Green FM, LysoTracker Red DND-100, excitation wavelengths recommended by the manufacturer were 488 nm for MitoTracker, 543 nm for LysoTracker. Emissions were integrated at 492-535 nm (MitoTracker), 550-625 nm (LysoTracker), respectively.
(§3) To determine the concentration of labile Fe^2+, the ratiometric Fe^2+ sensor, NIRh-Fret, has been developed. The two-bands absorption/fluorescence nature of the ratiometric sensor enables the tracing of the cellular distribution of the sensor itself as well as detecting the labile Fe^2+ pools. When Fe^2+ was added to NIRh-Fret solution, a decrease in intensity at 540 nm of the fluorescence and an increase in intensity at 735 nm were observed (FIGS. 70A-B).
(§4) To determine the cellular concentration of Fe^2+, an in-vitro calibration curve was obtained by titrating the sensor, NIRh-Fret (20 μM), with different concentrations of Fe^2+ and a calibration curve was obtained by plotting [Fe^2+] versus fluorescent ratio (F735/F540) (FIG. 71). Ratiometric imaging was performed with 2 different cell lines, HT29 cells and WS1 cells and with iron replete and depleting conditions.
(§5) Fitting the ratiometric imaging data to the calibration curve gives Fe^2+ concentration for the first time in ws1 cells, with a value of ˜8±1 μM determined in the mitochondria of untreated cells, 12±1 μM in the mitochondria of Fe (II) treated cells, and 5±1 μM in the mitochondria of the Fe(II)-chelator Bpy treated cells, 71 μM determined in the lysosomes of untreated cells, 10±1 μM in the lysosomes of Fe (II) treated cells, and 5±1 μM in the lysosomes of Bpy treated cells. Cytosol Fe^2+ levels are low which were not readily observed by the imaging pictures. […] By fitting the ratios to the calibration curve, Fe^2+ concentration was determined to be below 1 μM in the cytosol of untreated cells, 3-4 μM in the cytosol of Fe (II) treated cells, and 0 μM in the cytosol of Bpy treated cells. Also Fe^2+ concentrations in HT-29 cells determined to be ˜11±1 μM in the mitochondria of untreated cells, 15±1 μM in mitochondria of Fe (II)-treated cells, and 9±1 μM in mitochondria of Bpy-treated cells and 9±1 μM determined in the lysosomes of untreated cells, 13±1 μM in the lysosomes of Fe (II) treated cells, and 6±1 μM in the lysosomes of Bpy treated cells, below 1 μM determined in the cytosol of untreated cells, 4-5 μM in the cytosol of Fe (II) treated cells, and 0 μM in the cytosol of Bpy treated cells and the results are summarized in Table 2.

HT-29 cells = assay: Ratiometric determination of labile Fe2+ concentration in HT-29 cells; type: cell-based, human
Method: as §1, §2, §3, §4, §5

[1] = ratio F735/F540 fitted to calibration curve

Compound: CCN(CC)c1ccc2c(c1)OC1=C(CCC/C1=C\C=C1\N(C)c3ccccc3C1(C)C)C21c2ccccc2C(=O)N1/N=C\C=C\c1ccc(N(C)C)cc1 (stereo not drawn) [NIRh-Fret, (E)-6′-(diethylamino)-2-(((1Z,2E)-3-(4-(dimethylamino)phenyl)allylidene)amino)-4′-(2-((E)-1,3,3-trimethylindolin-2-ylidene)ethylidene)-1′,2′,3′,4′-tetrahydrospiro[isoindoline-1,9′-xanthen]-3-one]
- Fe(II) concentration in cytosol, Bpy treated cells (ws1 cells): ~0 µM
- Fe(II) concentration in cytosol, Fe(II) treated cells (ws1 cells): 3 to 4 µM
- Fe(II) concentration in lysosome, Bpy treated cells (ws1 cells): 5 ± 1 µM
- Fe(II) concentration in lysosome, Fe(II) treated cells (ws1 cells): 10 ± 1 µM
- Fe(II) concentration in mitochondria, Bpy treated cells (ws1 cells): 5 ± 1 µM
- Fe(II) concentration in mitochondria, Fe(II) treated cells (ws1 cells): 12 ± 1 µM
- Fe(II) concentration in mitochondria, Untreated cells (ws1 cells; [1]): ~8 ± 1 µM and 8 ± 1 µM
- Fe(II) concentration in cytosol, Bpy treated cells (HT-29 cells): 0 µM
- Fe(II) concentration in cytosol, Fe(II) treated cells (HT-29 cells): 4 to 5 µM
- Fe(II) concentration in lysosome, Bpy treated cells (HT-29 cells): 6 ± 1 µM
- Fe(II) concentration in lysosome, Fe(II) treated cells (HT-29 cells): 13 ± 1 µM
- Fe(II) concentration in lysosome, Untreated cells (HT-29 cells): ~9 ± 1 µM and 9 ± 1 µM
- Fe(II) concentration in mitochondria, Bpy treated cells (HT-29 cells): 9 ± 1 µM
- Fe(II) concentration in mitochondria, Fe(II) treated cells (HT-29 cells): 15 ± 1 µM
- Fe(II) concentration in mitochondria, Untreated cells (HT-29 cells; [1]): ~11 ± 1 µM and 11 ± 1 µM
